The other results are listed elsewhere or left out. Further columns of the screen follow, without active or inactive calls. Compounds called inactive in the main read-out are mostly missing here. Potencies come from curve fits of mixed quality, noted in brackets.
Test: qHTS Assay for Lipid Storage Modulators in Drosophila S3 Cells;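 for cell number change: cells counted by Cell Tracker Red CMTPX staining in the red channel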
Conditions: BODIPY lipid droplet fluorescence, 18-24 h; for cell number change: measured here: cell count max response, cells fed with added oleic acid
Procedure, shortened: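 Drosophila S3 cells loaded with oleic acid (400 uM, as added) and compounds at several concentrations; lipid droplets imaged by 488-nm laser-scanning cytometry, 500–530 nm intensity and object ratio to cell channel. Percent activity normalized to 20 uM Triacsin C.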

[1] = measured here: lipid fluorescence (Fed channel) AC50, cells fed with added oleic acid
[2] = measured here: cell number channel AC50, cells fed with added oleic acid

SMILES	AC50 [1]	cell number change [%]	AC50 [2]
COc1ccccc1NC(=S)N(Cc1ccc(Cl)cc1)CC1CCC(C(=O)O)CC1 (stereo not drawn)	0.206 µM [falling, partial curve, poor fit]		
CN(C)c1nc(-c2ccccc2)cc(C(F)(F)F)c1C#N		-20.5	
CCC(CC)c1nn2c(N)c(/C=C3\C(C)=Nc4ccccc43)c(=O)nc2s1	0.461 µM [rising, single point]	-6.2	
C[C@H](NC(=O)c1ccco1)C(=O)Nc1ccc(C#N)cc1		14.1	
Cc1cc(NS(=O)(=O)c2ccc(NC(=S)NC(=O)c3ccc(F)cc3)cc2)no1	6.51 µM [falling, single point]	5.63	5.17 µM [falling, single point]
O=C(CSc1nnc(C2CC2)n1Cc1ccco1)NCC(F)(F)F		7.17	
O=C(CN1CCCC1)Nc1ccc(Oc2ccc(NC(=O)CN3CCCC3)cc2)cc1	0.13 µM [falling, full curve, poor fit]		
Cc1nc2nc(C)c(CCC(=O)N3CCN(c4ccccn4)CC3)c(C)n2n1	9.2 µM [rising, partial curve]	24.5	
O=C(CNC(=O)c1ccccc1)N/N=C/c1ccc([N+](=O)[O-])s1	29.1 µM [falling, single point]	-25.1	
COCCNC(=O)CSc1nccn1Cc1ccc2c(c1)OCO2	18.4 µM [falling, single point]	-17.2	0.0058 µM [falling, full curve, poor fit]
COC(=O)Nc1ccc(S(=O)(=O)N2CCC(C)CC2)cc1		47	
Cc1ccc(S(=O)(=O)N2CCC(=O)N(CCOCc3cccc(C)c3)CC2)cc1	0.58 µM [rising, single point]	35.8	10.3 µM [rising, single point]
CCN(c1ccccc1)S(=O)(=O)c1c(C)noc1C		6.43	
Cc1cccc(N=C2Sc3nc4c(C)c(C)ccc4cc3CN2CCN2CCOCC2)c1	6.51 µM [falling, single point]	-26.3	
Cc1cc(C)c(-c2csc(NC(=O)C3=NN(c4ccccc4)C(=O)CC3)n2)c(C)c1	16.4 µM [falling, partial curve]	-27.8	
CCc1ccccc1NC(=O)/C(C#N)=C\c1ccc(Sc2ccccc2)o1	32.6 µM [falling, single point]	-17.9	
Cc1n[nH]c(C)c1CCCCOc1ccccc1		39.9	20.6 µM [rising, single point]
CCN1CCc2nc(SCC(=O)Nc3ccc(OC)cc3)c(C#N)cc2C1	6.51 µM [rising, partial curve]	8.6	
CCOc1ccc(S(=O)(=O)N2CCOCC2)cc1NC(=O)CSCC(=O)Nc1ccc(C)cc1		34.7	14.6 µM [rising, partial curve, poor fit]
CCn1ccnc1CN(C)Cc1cn(-c2cc(C)ccc2C)nc1-c1ccccc1		-22.9	
COc1ccc(C)cc1S(=O)(=O)N1CCCC(C(=O)N2CCN(c3ccccc3F)CC2)C1 (stereo not drawn)		-33.8	

SMILES	AC50 [1]	cell number change [%]	AC50 [2]
O=C(NNS(=O)(=O)c1ccc(F)cc1)c1cccc(O)c1	0.231 µM [rising, full curve]	-1.06	
CCN(CC)S(=O)(=O)c1ccc(OC(C)C)c(N)c1			0.731 µM [falling, single point]
CC(C)(C)NC(=O)CCSc1nnc(-c2ccco2)o1	29.1 µM [rising, single point]	23.5	
C=C(C)CNC(=S)N/N=C(\C)c1ccc(-n2ccnc2)cc1	0.291 µM [rising, full curve]	61.8	0.116 µM [rising, full curve, poor fit]
OCCSc1nc(-c2ccccc2)nc2c1CCC2	20.6 µM [rising, single point]	25.4	
Cc1occc1-c1nnc(SCC(=O)c2ccc(Cl)cc2)n1C	29.1 µM [falling, single point]	-18.2	
Cc1ccc(CNC(=O)C2CCCN(S(=O)(=O)c3c(C)n[nH]c3C)C2)cc1 (stereo not drawn)		76.5	16.4 µM [rising, partial curve]
CN1CCN(c2cc(N3CCN(C(=O)c4ccco4)CC3)c3c4c(onc24)-c2ccccc2C3=O)CC1		39.2	4.11 µM [falling, single point]
Clc1ccc(COc2cccc(CNCc3ccncc3)c2)cc1		46.8	4.11 µM [falling, single point]
CCOC(=O)c1[nH]c(C)c(C(=O)Nc2ccc(F)cc2)c1C	23.1 µM [rising, single point]	77.3	4.11 µM [rising, full curve]
O=C(O)CCNc1cc2ccccc2cc1C(=O)O	0.116 µM [rising, full curve, poor fit]	6.99	
CC(=O)Nc1ccc(C2=NN(C)C(=NCc3ccccc3)SC2)cc1		20.6	
Cc1ccc(C(=O)N/C(=C\c2ccc(Cl)cc2)C(=O)NCCN2CCOCC2)cc1	0.58 µM [falling, single point]	5.65	
CN1CCc2c(sc(NC(=O)c3ccc(S(=O)(=O)N4CCCC4)cc3)c2C(N)=O)C1	6.51 µM [rising, single point]	-26.4	
Cc1ccc(NC(=O)CSc2nncc3ccccc23)cc1	29.1 µM [falling, single point]	-6.94	
CCCNC(=O)Cc1c(O)c2ccccc2[nH]c1=O		-7.47	0.164 µM [falling, full curve]
O=C(C/C=N/OCc1ccc(Cl)cc1Cl)c1ccccc1		1.87	
N#Cc1ccc(/C=N/NC(=O)CCc2ccc(S(=O)(=O)N3CCOCC3)cc2)cc1	9.2 µM [rising, partial curve, poor fit]	17.2	
COc1ccc(CCN2C(=O)CC(Nc3ccc(N4CCOCC4)cc3)C2=O)cc1OC (stereo not drawn)	6.51 µM [rising, partial curve]	-36.9	5.8 µM [falling, full curve, poor fit]
CCCCN1C(=O)/C(=C/C=C2\N(C)c3ccccc3C2(C)C)SC1=S	1.46 µM [falling, partial curve]	-71.2	2.31 µM [falling, full curve]
COc1ccc(C(=O)NCCNc2ccc([N+](=O)[O-])cc2)cc1OC	23.1 µM [falling, single point]	-16.1	

SMILES	AC50 [1]	cell number change [%]	AC50 [2]
[O-]/C(=C(\C(=S)Nc1ccc(SC(F)F)cc1)[n+]1cccc(CO)c1)c1ccc(Cl)s1		-5.17	
COC(=O)c1nc(N)sc1C(C)C	0.58 µM [rising, full curve]	11.7	
CC(C)CNC(=O)NC1C(NC(=O)NCC(C)C)N(C)C(=O)N1C (stereo not drawn)	3.66 µM [falling, single point]	-0.897	
Cc1cc(C(=O)OCC(=O)c2ccc(Br)s2)no1	3.66 µM [rising, single point]	-5.02	
COc1ccccc1C(=O)Nc1cc(C)c(OCC(=O)N2CCOCC2)c(C)c1		-31.5	16.4 µM [falling, single point]
COc1cc(-c2nc3cnccn3c2Nc2ccc(C(C)C)cc2)ccc1O		-89.1	23.1 µM [falling, single point]
C=CCSc1ncnc2sc(C)c(C)c12	5.8 µM [rising, single point]	-7.53	
CSc1ccc(NC(=O)NCCN2CCc3ccccc3C2)cc1		40.9	
COc1ccc(OCc2nnc3n2N=C(c2ccc(OC)cc2)CS3)cc1	2.31 µM [rising, partial curve]	-10.6	2.06 µM [rising, partial curve, poor fit]
O=C(CN1CCCCC1)NCC(=O)Nc1ccc(F)c(F)c1F	2.31 µM [falling, partial curve]	9.71	
Cc1cc(C)nc(-n2nc(C)c(Br)c2Nc2ccc(Br)cc2)n1	0.13 µM [rising, full curve]	6.59	0.092 µM [rising, full curve]
COc1ccc(C(=O)Nc2c3c(nn2-c2cccc(Cl)c2)CS(=O)C3)cc1 (stereo not drawn)	4.61 µM [rising, partial curve]		2.06 µM [rising, partial curve]
CC(=O)Nc1ccccc1C(=O)C(=O)Nc1ccc(F)c(Cl)c1	25.9 µM [rising, single point]	-3.3	
O=C(CN1CCN(c2ncccn2)CC1)Nc1ccccc1C(F)(F)F	29.1 µM [falling, single point]	-24.1	
S=C(Nc1ccc(Cl)cc1)NC1CC2CCCC(C1)N2C1CCCC1 (stereo not drawn)		-3.45	
Nc1nc(CN2CCN(c3ccccc3F)CC2)nc(N2CCCc3ccccc32)n1	0.206 µM [falling, partial curve, poor fit]	-4.46	
COc1ccc([C@H]2[C@H](C(=O)OC(C)(C)C)N3N=Cc4ccccc4C3C23C(=O)c2ccccc2C3=O)c(OC)c1 (stereo partly drawn)	29.1 µM [falling, single point]	-20.5	
CCOc1cccc(C=NCCc2ccc(OC)c(OC)c2)c1O		18.1	
CNC(=O)c1ccc(-c2ccc(F)cc2)s1	29.1 µM [rising, single point]	-15.1	
CC(C)CCn1c(N2CCN(Cc3ccccc3)CC2)nc2c1c(=O)[nH]c(=O)n2C	18.4 µM [rising, partial curve]	20.9	
COc1ccc(NC(=O)c2ccco2)cc1NC(=O)c1cccs1		-9.53	

As a working copy, 14 of the compounds above.
SMILES	AC50 [1]	cell number change [%]	AC50 [2]
COC(=O)c1nc(N)sc1C(C)C	0.58 µM [rising, full curve]	11.7	
CC(C)CNC(=O)NC1C(NC(=O)NCC(C)C)N(C)C(=O)N1C (stereo not drawn)	3.66 µM [falling, single point]	-0.897	
Cc1cc(C(=O)OCC(=O)c2ccc(Br)s2)no1	3.66 µM [rising, single point]	-5.02	
COc1ccccc1C(=O)Nc1cc(C)c(OCC(=O)N2CCOCC2)c(C)c1		-31.5	16.4 µM [falling, single point]
COc1cc(-c2nc3cnccn3c2Nc2ccc(C(C)C)cc2)ccc1O		-89.1	23.1 µM [falling, single point]
C=CCSc1ncnc2sc(C)c(C)c12	5.8 µM [rising, single point]	-7.53	
CSc1ccc(NC(=O)NCCN2CCc3ccccc3C2)cc1		40.9	
COc1ccc(OCc2nnc3n2N=C(c2ccc(OC)cc2)CS3)cc1	2.31 µM [rising, partial curve]	-10.6	2.06 µM [rising, partial curve, poor fit]
O=C(CN1CCCCC1)NCC(=O)Nc1ccc(F)c(F)c1F	2.31 µM [falling, partial curve]	9.71	
Cc1cc(C)nc(-n2nc(C)c(Br)c2Nc2ccc(Br)cc2)n1	0.13 µM [rising, full curve]	6.59	0.092 µM [rising, full curve]
COc1ccc(C(=O)Nc2c3c(nn2-c2cccc(Cl)c2)CS(=O)C3)cc1 (stereo not drawn)	4.61 µM [rising, partial curve]		2.06 µM [rising, partial curve]
CC(=O)Nc1ccccc1C(=O)C(=O)Nc1ccc(F)c(Cl)c1	25.9 µM [rising, single point]	-3.3	
O=C(CN1CCN(c2ncccn2)CC1)Nc1ccccc1C(F)(F)F	29.1 µM [falling, single point]	-24.1	
S=C(Nc1ccc(Cl)cc1)NC1CC2CCCC(C1)N2C1CCCC1 (stereo not drawn)		-3.45	
